Article PMC4847003 (International Journal for Parasitology: Drugs and Drug …, 2015)
Where a name gives a salt, the structure may show the parent alone.

Key:
[1] = Host cell number in the same well of the amastigote image-based assay; parameters: species or system mouse; details: mouse, 3T3 host cells infected with T. cruzi
T. cruzi trypomastigotes = test: Trypomastigote viability assay; assay type: cell-based, Trypanosoma cruzi Tulahuen strain
T. cruzi = details: ref Planer et al., 2014; cited from earlier work
3T3 host cells = test: Host cell number in the same well of the amastigote image-based assay; parameters: species or system mouse; details: 3T3 IC50 or highest dose tested / amastigote IC50

Compound | cytotoxicity at 48 h, 18.3 µM [1] [%] | Trypomastigote activity, % at highest dose (T. cruzi trypomastigotes; at 25.5 μM, library DMSO stock) [% at 25.5 μM] | Trypomastigote activity, % at highest dose (T. cruzi trypomastigotes; at […], solid sample) [% at 21.6 μM] | activity in an in vivo model of acute infection (T. cruzi) | SI (3T3) (3T3 host cells; library DMSO stock) | SI (3T3) (3T3 host cells; solid sample)
CN1CCC[C@@H]1CCO[C@](C)(c1ccccc1)c1ccc(Cl)cc1 [Clemastine Fumarate, clemastine fumarate, reference compound] | 48 | 80 | 48 | failed to show activity |  | 
Clc1ccccc1C(c1ccccc1)(c1ccccc1)n1ccnc1 [Clotrimrazole HCl, clotrimazole] |  |  |  |  | >86.84 | >107.65
